# Test results: the supplement of paper PMC12823440, “Inhibitors supercharge kinase turnover through native proteolytic circuits” (Nature, 2025)
# Sequences of proteins named here, by UniProt entry; tags and fusion partners are left off. A change or cut given only in a name is not applied to a line headed by its entry.
# UniProt P28482, whole entry: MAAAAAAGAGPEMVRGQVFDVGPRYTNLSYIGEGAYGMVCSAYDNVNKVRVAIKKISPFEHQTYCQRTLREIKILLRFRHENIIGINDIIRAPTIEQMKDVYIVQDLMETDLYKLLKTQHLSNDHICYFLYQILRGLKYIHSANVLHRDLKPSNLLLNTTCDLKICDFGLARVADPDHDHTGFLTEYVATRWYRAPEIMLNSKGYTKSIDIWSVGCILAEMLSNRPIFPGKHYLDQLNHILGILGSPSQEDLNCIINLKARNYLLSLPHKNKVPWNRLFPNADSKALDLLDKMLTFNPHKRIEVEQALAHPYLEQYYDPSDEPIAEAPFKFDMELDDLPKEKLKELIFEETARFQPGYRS
# UniProt Q16620, whole entry, looked up: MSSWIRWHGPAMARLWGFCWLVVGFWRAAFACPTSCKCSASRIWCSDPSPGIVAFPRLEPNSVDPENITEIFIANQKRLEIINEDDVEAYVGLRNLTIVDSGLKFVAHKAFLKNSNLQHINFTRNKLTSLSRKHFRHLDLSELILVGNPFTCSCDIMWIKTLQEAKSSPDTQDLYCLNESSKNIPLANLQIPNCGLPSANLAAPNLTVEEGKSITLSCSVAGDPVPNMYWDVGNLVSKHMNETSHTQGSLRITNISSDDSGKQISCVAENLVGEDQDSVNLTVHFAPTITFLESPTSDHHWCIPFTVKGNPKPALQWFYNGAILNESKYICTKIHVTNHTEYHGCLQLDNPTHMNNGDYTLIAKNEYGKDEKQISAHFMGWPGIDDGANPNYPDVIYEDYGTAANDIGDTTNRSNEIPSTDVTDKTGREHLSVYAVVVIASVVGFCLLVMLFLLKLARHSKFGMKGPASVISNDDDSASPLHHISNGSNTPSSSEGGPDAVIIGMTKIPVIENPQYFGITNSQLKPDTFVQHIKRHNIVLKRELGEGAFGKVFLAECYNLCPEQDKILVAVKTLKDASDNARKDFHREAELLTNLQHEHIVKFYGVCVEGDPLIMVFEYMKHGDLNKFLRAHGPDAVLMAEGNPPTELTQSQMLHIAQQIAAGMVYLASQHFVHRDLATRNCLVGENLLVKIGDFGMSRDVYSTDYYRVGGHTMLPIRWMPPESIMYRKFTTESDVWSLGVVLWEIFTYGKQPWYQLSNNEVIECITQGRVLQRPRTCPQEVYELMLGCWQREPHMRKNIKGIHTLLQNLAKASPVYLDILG
# UniProt O96013: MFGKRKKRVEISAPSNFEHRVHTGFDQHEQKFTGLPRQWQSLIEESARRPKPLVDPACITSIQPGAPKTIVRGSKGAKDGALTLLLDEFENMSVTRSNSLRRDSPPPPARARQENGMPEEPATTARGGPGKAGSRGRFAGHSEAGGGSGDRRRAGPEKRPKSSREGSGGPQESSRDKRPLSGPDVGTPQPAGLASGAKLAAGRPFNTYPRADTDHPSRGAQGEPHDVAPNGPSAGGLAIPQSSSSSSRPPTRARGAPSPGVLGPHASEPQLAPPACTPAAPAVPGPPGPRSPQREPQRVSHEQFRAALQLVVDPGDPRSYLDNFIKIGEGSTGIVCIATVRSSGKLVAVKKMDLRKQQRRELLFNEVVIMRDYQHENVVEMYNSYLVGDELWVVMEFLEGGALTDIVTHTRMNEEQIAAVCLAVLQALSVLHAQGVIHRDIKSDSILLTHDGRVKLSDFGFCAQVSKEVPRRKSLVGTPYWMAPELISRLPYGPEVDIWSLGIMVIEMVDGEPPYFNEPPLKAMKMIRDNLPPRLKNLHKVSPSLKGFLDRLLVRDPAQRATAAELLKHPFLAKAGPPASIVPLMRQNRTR
# UniProt Q96KB5: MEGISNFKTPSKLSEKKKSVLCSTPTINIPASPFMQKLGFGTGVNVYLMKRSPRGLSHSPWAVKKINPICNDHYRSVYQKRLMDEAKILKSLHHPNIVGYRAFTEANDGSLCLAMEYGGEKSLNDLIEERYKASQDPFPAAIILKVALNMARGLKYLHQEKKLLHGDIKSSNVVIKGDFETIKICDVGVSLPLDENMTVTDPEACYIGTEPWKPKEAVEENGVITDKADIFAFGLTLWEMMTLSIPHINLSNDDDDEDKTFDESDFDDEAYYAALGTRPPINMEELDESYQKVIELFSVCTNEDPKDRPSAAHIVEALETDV
# UniProt P09619, whole entry: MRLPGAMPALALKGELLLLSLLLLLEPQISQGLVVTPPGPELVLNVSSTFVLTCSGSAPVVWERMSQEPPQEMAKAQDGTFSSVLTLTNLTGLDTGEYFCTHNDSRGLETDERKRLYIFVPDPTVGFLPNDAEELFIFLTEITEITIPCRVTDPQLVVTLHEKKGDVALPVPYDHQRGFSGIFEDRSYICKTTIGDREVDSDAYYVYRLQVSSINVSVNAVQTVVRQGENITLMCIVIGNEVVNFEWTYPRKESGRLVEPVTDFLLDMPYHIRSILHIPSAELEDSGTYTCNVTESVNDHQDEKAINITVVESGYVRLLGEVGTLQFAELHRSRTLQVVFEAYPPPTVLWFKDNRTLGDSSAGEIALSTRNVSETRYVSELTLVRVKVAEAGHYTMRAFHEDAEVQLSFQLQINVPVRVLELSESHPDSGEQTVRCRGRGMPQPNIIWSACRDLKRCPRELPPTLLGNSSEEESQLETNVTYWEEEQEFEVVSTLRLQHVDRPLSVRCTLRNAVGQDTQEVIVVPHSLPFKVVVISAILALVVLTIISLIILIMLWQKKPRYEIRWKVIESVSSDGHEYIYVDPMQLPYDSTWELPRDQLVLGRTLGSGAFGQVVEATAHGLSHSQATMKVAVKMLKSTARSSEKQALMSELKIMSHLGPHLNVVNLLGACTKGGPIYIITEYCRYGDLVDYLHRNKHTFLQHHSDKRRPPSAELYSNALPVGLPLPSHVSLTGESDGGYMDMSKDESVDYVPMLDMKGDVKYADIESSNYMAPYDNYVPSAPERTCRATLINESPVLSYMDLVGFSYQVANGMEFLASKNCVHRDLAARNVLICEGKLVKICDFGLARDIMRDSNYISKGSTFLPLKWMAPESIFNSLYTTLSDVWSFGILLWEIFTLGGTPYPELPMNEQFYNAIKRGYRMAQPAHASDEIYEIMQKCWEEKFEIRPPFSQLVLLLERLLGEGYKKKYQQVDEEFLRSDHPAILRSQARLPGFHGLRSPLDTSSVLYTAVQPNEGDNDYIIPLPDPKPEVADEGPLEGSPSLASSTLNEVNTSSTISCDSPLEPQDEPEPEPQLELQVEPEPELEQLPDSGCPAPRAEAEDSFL
# UniProt Q15118, whole entry, looked up: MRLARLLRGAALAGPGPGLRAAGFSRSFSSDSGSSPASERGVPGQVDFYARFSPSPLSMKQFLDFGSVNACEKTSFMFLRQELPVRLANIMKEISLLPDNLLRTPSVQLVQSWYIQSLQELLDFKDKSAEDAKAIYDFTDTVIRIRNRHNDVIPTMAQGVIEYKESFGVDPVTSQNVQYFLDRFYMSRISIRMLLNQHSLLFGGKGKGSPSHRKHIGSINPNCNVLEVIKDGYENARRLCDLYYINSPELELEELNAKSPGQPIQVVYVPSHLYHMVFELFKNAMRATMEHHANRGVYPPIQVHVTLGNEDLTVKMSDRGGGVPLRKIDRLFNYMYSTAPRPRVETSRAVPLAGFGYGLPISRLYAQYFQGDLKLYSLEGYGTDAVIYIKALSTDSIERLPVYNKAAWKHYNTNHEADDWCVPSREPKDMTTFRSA
# UniProt P42356, whole entry, looked up: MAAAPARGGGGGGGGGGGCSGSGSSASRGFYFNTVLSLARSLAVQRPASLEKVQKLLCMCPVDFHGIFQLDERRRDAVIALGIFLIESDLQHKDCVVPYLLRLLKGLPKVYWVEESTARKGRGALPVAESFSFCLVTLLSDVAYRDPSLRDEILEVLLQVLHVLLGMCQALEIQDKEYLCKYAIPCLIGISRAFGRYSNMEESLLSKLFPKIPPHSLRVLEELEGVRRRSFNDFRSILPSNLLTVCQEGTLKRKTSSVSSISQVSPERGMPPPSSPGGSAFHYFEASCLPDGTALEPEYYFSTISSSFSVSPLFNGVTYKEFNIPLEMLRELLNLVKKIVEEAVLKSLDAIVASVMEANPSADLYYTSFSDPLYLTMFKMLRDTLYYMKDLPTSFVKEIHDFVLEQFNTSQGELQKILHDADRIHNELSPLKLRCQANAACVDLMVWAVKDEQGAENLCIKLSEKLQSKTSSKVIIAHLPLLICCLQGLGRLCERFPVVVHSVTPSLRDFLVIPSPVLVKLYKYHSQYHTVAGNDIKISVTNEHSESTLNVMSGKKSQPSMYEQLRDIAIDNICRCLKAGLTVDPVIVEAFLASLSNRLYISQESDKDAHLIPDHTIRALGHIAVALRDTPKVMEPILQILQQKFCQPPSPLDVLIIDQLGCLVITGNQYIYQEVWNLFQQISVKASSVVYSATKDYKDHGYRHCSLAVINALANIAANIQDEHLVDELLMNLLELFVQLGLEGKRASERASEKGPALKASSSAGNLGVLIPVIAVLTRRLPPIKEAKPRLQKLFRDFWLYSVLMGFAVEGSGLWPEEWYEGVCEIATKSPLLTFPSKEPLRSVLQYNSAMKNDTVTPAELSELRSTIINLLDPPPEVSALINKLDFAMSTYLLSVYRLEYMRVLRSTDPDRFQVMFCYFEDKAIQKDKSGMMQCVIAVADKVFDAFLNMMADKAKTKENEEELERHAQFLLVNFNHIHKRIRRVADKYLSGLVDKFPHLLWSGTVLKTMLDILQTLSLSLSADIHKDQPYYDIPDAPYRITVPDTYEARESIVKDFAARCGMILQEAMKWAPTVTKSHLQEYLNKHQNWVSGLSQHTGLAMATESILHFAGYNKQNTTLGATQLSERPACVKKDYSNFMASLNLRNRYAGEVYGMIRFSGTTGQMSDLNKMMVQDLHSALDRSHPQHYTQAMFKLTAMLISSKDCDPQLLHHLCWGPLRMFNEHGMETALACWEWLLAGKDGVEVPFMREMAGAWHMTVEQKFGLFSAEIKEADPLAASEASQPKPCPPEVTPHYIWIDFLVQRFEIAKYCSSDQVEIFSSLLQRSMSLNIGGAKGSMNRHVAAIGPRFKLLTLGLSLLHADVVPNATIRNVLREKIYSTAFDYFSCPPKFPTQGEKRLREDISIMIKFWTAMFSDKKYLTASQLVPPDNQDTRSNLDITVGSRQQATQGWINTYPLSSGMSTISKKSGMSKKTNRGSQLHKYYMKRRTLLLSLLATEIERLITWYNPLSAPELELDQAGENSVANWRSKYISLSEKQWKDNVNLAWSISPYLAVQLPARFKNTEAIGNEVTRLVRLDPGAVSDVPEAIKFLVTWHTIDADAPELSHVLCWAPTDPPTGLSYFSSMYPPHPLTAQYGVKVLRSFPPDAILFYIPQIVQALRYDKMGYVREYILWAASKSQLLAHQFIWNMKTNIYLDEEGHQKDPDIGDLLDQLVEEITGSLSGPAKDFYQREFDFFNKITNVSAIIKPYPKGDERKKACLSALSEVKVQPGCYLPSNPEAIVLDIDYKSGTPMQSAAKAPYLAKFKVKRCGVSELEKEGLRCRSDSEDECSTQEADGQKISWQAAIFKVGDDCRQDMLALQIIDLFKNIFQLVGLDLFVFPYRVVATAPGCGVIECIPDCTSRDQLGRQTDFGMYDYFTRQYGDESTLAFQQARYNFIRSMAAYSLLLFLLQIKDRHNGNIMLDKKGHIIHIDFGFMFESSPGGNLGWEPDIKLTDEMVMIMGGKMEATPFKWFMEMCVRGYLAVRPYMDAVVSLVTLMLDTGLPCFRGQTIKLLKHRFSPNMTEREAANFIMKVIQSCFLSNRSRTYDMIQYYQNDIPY
# UniProt Q9UBF8: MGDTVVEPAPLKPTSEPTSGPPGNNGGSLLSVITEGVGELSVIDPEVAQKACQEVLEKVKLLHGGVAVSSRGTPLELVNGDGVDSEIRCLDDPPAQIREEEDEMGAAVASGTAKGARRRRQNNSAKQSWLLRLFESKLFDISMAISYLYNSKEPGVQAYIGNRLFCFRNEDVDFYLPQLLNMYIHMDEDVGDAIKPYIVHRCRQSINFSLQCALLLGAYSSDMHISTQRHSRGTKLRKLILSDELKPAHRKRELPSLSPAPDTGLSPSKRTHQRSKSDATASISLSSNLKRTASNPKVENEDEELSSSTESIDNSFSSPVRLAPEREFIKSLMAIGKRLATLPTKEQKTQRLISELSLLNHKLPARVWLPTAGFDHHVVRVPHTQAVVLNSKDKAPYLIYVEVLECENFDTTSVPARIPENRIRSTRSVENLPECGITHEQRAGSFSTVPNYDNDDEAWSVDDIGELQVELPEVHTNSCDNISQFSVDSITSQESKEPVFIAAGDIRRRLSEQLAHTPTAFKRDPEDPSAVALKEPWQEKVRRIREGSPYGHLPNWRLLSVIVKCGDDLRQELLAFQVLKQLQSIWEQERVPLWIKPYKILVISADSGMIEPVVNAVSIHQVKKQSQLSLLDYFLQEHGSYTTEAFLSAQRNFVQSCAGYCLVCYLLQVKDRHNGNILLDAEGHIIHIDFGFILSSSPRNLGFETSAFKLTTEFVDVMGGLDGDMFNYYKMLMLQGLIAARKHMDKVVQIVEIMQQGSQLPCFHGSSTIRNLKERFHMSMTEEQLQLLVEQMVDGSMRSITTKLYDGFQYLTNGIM
# Counter-ions that a name gives are not always drawn. The list shows a part of the results. The calls rarely recur for the same compound in another form.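 Kinases were expressed as nanoluciferase fusions in K562 cells and luminescence was read every 4 h between 2 and 18 h as percent of control, DMSO set to 100% and a positive control to 0%. A time point counts as decreased when the signal drops significantly (2 sigma). The hit call is the authors' own, does not follow from the count of time points alone, and its rule is not shown.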
# Key:
# Experiment in all cases: kinase-Nluc reporter destabilization hit call (1 = scored as downregulated) (binary); higher = compound decreases kinase abundance
# MAPK1 = MAPK1 (UniProt P28482); conditions: K562, 2-18 h
# MAPK4 = MAPK4 (UniProt P31152); conditions: K562, 2-18 h
# MAPKAPK2 = MAPKAPK2 (UniProt P49137); conditions: K562, 2-18 h
# MKNK1 = MKNK1 (UniProt Q9BUB5); conditions: K562, 2-18 h
# NTRK2 = NTRK2 (UniProt Q16620); conditions: K562, 2-18 h
# PAK4 = PAK4 (UniProt O96013); conditions: K562, 2-18 h
# PBK = PBK (UniProt Q96KB5); conditions: K562, 2-18 h
# PDGFRB = PDGFRB (UniProt P09619); conditions: K562, 2-18 h
# PDK1 = PDK1 (UniProt Q15118); conditions: K562, 2-18 h
# PDPK1 = PDPK1 (UniProt O15530); conditions: K562, 2-18 h
# PIK4CA = PIK4CA (UniProt P42356); conditions: K562, 2-18 h
# PIK4CB = PIK4CB (UniProt Q9UBF8); conditions: K562, 2-18 h
# PLK1 = PLK1 (UniProt P53350); conditions: K562, 2-18 h
# PRKAA1 = PRKAA1 (UniProt Q13131); conditions: K562, 2-18 h
# PRKCA = PRKCA (UniProt P17252); conditions: K562, 2-18 h
# PTK2 = PTK2 (UniProt Q05397); conditions: K562, 2-18 h
# PTK2B = PTK2B (UniProt Q14289); conditions: K562, 2-18 h
# RAF1 = RAF1 (UniProt P04049); conditions: K562, 2-18 h
# [1] = target: RAF1_S257L (clone: RAF1_mut) (UniProt P04049); conditions: K562, 2-18 h
# NTRK3 = NTRK3 (UniProt Q16288); conditions: 10 µM; K562; 2-18 h
Compound,kinase-Nluc reporter destabilization hit call (MAPK1; 2.5 µM),kinase-Nluc reporter destabilization hit call (MAPK4; 2.5 µM),kinase-Nluc reporter destabilization hit call (MAPKAPK2; 2.5 µM),kinase-Nluc reporter destabilization hit call (MKNK1; 2.5 µM),kinase-Nluc reporter destabilization hit call (NTRK2; 2.5 µM),kinase-Nluc reporter destabilization hit call (PAK4; 2.5 µM),kinase-Nluc reporter destabilization hit call (PBK; 2.5 µM),kinase-Nluc reporter destabilization hit call (PDGFRB; 2.5 µM),kinase-Nluc reporter destabilization hit call (PDK1; 2.5 µM),kinase-Nluc reporter destabilization hit call (PDPK1; 2.5 µM),kinase-Nluc reporter destabilization hit call (PIK4CA; 2.5 µM),kinase-Nluc reporter destabilization hit call (PIK4CB; 2.5 µM),kinase-Nluc reporter destabilization hit call (PLK1; 2.5 µM),kinase-Nluc reporter destabilization hit call (PRKAA1; 2.5 µM),kinase-Nluc reporter destabilization hit call (PRKCA; 2.5 µM),kinase-Nluc reporter destabilization hit call (PTK2; 2.5 µM),kinase-Nluc reporter destabilization hit call (PTK2B; 2.5 µM),kinase-Nluc reporter destabilization hit call (RAF1; 2.5 µM),kinase-Nluc reporter destabilization hit call ([1]; 2.5 µM),kinase-Nluc reporter destabilization hit call (MAPK1; 10 µM),kinase-Nluc reporter destabilization hit call (MAPK4; 10 µM),kinase-Nluc reporter destabilization hit call (MAPKAPK2; 10 µM),kinase-Nluc reporter destabilization hit call (MKNK1; 10 µM),kinase-Nluc reporter destabilization hit call (NTRK3),kinase-Nluc reporter destabilization hit call (PAK4; 10 µM),kinase-Nluc reporter destabilization hit call (PBK; 10 µM),kinase-Nluc reporter destabilization hit call (PDGFRB; 10 µM),kinase-Nluc reporter destabilization hit call (PDK1; 10 µM),kinase-Nluc reporter destabilization hit call (PDPK1; 10 µM),kinase-Nluc reporter destabilization hit call (PIK4CA; 10 µM),kinase-Nluc reporter destabilization hit call (PIK4CB; 10 µM),kinase-Nluc reporter destabilization hit call (PLK1; 10 µM),kinase-Nluc reporter destabilization hit call (PRKAA1; 10 µM),kinase-Nluc reporter destabilization hit call (PRKCA; 10 µM),kinase-Nluc reporter destabilization hit call (PTK2; 10 µM),kinase-Nluc reporter destabilization hit call (PTK2B; 10 µM),kinase-Nluc reporter destabilization hit call (RAF1; 10 µM),kinase-Nluc reporter destabilization hit call ([1]; 10 µM),kinase-Nluc reporter destabilization hit call (NTRK2; 10 µM)
Cc1cccc(-c2[nH]c(CNc3ccccc3F)nc2-c2ccc3ncnn3c2)n1 [Vactosertib (Hydrochloride)],inactive: 0,inactive: 0,inactive: 0,inactive: 0,inactive: 0,inactive: 0,inactive: 0,inactive: 0,inactive: 0,inactive: 0,inactive: 0,inactive: 0,inactive: 0,inactive: 0,inactive: 0,inactive: 0,inactive: 0,inactive: 0,inactive: 0,–,–,–,–,–,–,–,–,–,–,–,–,–,–,–,–,–,–,–,–
Cn1ncc(Cl)c1-c1cc(C(=O)N[C@H](CN)Cc2cccc(F)c2)sc1Cl [Afuresertib],–,–,–,–,–,–,–,–,–,–,–,–,–,–,–,–,–,–,–,inactive: 0,inactive: 0,inactive: 0,inactive: 0,inactive: 0,inactive: 0,inactive: 0,inactive: 0,inactive: 0,inactive: 0,inactive: 0,inactive: 0,inactive: 0,inactive: 0,inactive: 0,inactive: 0,inactive: 0,inactive: 0,inactive: 0,–
COc1cc(/C=C/C(=O)O)ccc1O [Ferulic acid],–,–,–,–,–,–,–,–,–,–,–,–,–,–,–,–,–,–,–,inactive: 0,inactive: 0,inactive: 0,inactive: 0,inactive: 0,inactive: 0,inactive: 0,inactive: 0,inactive: 0,inactive: 0,inactive: 0,inactive: 0,inactive: 0,inactive: 0,inactive: 0,inactive: 0,inactive: 0,inactive: 0,inactive: 0,inactive: 0
CC(=O)c1c(C)c2cnc(Nc3ccc(N4CCNCC4)cn3)nc2n(C2CCCC2)c1=O [Palbociclib (monohydrochloride)],–,–,–,–,–,–,–,–,–,–,–,–,–,–,–,–,–,–,–,inactive: 0,inactive: 0,inactive: 0,inactive: 0,inactive: 0,inactive: 0,inactive: 0,inactive: 0,inactive: 0,inactive: 0,inactive: 0,inactive: 0,inactive: 0,inactive: 0,inactive: 0,inactive: 0,inactive: 0,inactive: 0,inactive: 0,inactive: 0
Cc1cccc(-c2[nH]c(CNc3ccccc3F)nc2-c2ccc3ncnn3c2)n1 [Vactosertib],inactive: 0,inactive: 0,inactive: 0,inactive: 0,inactive: 0,inactive: 0,inactive: 0,inactive: 0,inactive: 0,inactive: 0,inactive: 0,inactive: 0,inactive: 0,inactive: 0,inactive: 0,inactive: 0,inactive: 0,inactive: 0,inactive: 0,–,–,–,–,–,–,–,–,–,–,–,–,–,–,–,–,–,–,–,–
C[C@@H](N)[C@H]1CC[C@H](C(=O)Nc2ccncc2)CC1,–,–,–,–,–,–,–,–,–,–,–,–,–,–,–,–,–,–,–,inactive: 0,inactive: 0,inactive: 0,inactive: 0,inactive: 0,inactive: 0,inactive: 0,inactive: 0,inactive: 0,inactive: 0,inactive: 0,inactive: 0,inactive: 0,inactive: 0,inactive: 0,inactive: 0,–,inactive: 0,inactive: 0,inactive: 0
O=C(Nc1cnn2ccc(N3CCC[C@@H]3c3cc(F)ccc3F)nc12)N1CC[C@H](O)C1 [Larotrectinib],–,–,–,–,–,–,–,–,–,–,–,–,–,–,–,–,–,–,–,inactive: 0,inactive: 0,inactive: 0,inactive: 0,inactive: 0,inactive: 0,inactive: 0,inactive: 0,inactive: 0,inactive: 0,inactive: 0,inactive: 0,inactive: 0,inactive: 0,inactive: 0,inactive: 0,inactive: 0,inactive: 0,inactive: 0,inactive: 0
CCS(=O)(=O)N1CCN(c2ccc(Nc3ncc(C(N)=O)c(NC4CC4)n3)cc2)CC1 [Cerdulatinib],–,–,–,–,–,–,–,–,–,–,–,–,–,–,–,–,–,–,–,inactive: 0,inactive: 0,inactive: 0,inactive: 0,inactive: 0,inactive: 0,inactive: 0,inactive: 0,inactive: 0,inactive: 0,inactive: 0,inactive: 0,inactive: 0,inactive: 0,inactive: 0,inactive: 0,inactive: 0,inactive: 0,inactive: 0,inactive: 0
O=C(c1ccc(F)c(F)c1Nc1ccc(I)cc1F)N1CC(O)([C@@H]2CCCCN2)C1 [Cobimetinib],–,–,–,–,–,–,–,–,–,–,–,–,–,–,–,–,–,–,–,inactive: 0,inactive: 0,inactive: 0,inactive: 0,inactive: 0,inactive: 0,inactive: 0,inactive: 0,inactive: 0,inactive: 0,inactive: 0,inactive: 0,inactive: 0,inactive: 0,inactive: 0,inactive: 0,inactive: 0,active: 1,active: 1,inactive: 0
